Laboratory results as given in patent publication US20250313879A1, “Fluorescent Probe for Detecting Peptide Bond Hydrolase” (The University of Tokyo, priority 2022, published 2025).

What was measured:
[1] = Microdevice compatibility of fluorescent mother nucleus compounds (Table 5)
[2] = Degree of adsorption to well wall surface in microdevice; format: physicochemical; conditions: 10 μM, 25° C. 1 hour; for fluorescence intensity of the center region: radius 1.12 μm or less; for fluorescence intensity of the center region / fluorescence intensity of the edge portion: average value±standard deviation; for fluorescence intensity of the edge portion: radius more than 1.12 μm and 2.08 μm or less

Row | Compound | donut-shaped fluorescence image due to adsorption to the microdevice [1] | ratio (edge/center) of fluorescence intensity [2] | fluorescence intensity of the center region [2] | fluorescence intensity of the edge portion [2]
1 | C[Si]1(C)C2=CC(=N)C=CC2=C(c2ccc(S(=O)(=O)O)cc2S(=O)(=O)O)c2ccc(N)cc21 [2,4-SO3H] | not observed | 0.58 | 1,880±178 AU | 1,087±106 AU
2 | C=CCN(CC=C)c1ccc2c(c1)[Si](C)(C)C1=CC(=[N+](CC=C)CC=C)C=CC1=C2c1ccc(S(=O)(=O)O)cc1S(=O)(=O)O [Tetra-allyl] | not observed | 0.62 | 483±33 AU | 300±23 AU
